# Data from patent publication US12628820B2, “Systems and methods for preservation of cells” (UNIVERSITY OF LOUISVILLE RESEARCH FOUNDATION, Inc., priority 2017, dated 2026).
# At least one compound was matched to its structure with a doubt left.
# Tested on: RBCs
# Test: Fluorescein delivery into RBCs by sonoporation (flow cytometry)
# Type: cell-based, human
smiles,measurement,setting,value
O=C1OC2(c3ccc(O)cc3Oc3cc(O)ccc32)c2ccccc21 [fluorescein],"efficiency of fluorescein delivery, pressure of 1.2 MPa versus 3.6 MPa",1.2 MPa compared with 3.6 MPa,greater efficiency
same,efficiency of fluorescein delivery with increasing sonication times,increasing sonication times,decreased
